# Measured values: paper PMC5824837
# Sequences of proteins named here, by UniProt entry; tags and fusion partners are left off.
# UniProt P63095: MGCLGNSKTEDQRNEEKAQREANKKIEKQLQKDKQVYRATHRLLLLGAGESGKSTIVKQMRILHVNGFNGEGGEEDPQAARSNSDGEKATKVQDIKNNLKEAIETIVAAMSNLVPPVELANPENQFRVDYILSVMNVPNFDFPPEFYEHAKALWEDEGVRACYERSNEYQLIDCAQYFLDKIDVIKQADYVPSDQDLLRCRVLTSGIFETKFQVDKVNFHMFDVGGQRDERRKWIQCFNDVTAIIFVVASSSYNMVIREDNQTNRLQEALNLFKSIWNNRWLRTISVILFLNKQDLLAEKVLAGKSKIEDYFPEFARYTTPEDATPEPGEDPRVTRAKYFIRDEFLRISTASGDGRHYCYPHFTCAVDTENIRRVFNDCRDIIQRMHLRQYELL
# These are yes or no findings as the source states them, for the method shown. Binding seen in cells or lysates may run through a third protein. Some results given as binding are weak or reduced against the parent protein; the word gives no strength.
# Legend:
# [1] = target: β2-adrenergic receptor (β2AR), full-length, integrated into nanolipoprotein particles (β2AR-NLPs) (human) (UniProt P07550); test: condition: only with the antagonist ICI118551 (ICI, 10 μM); pull-down; single-molecule pull-down (SiMPull): as a1, but with 10 μM ICI118551 (antagonist) in place of isoproterenol; only the target purified
# [2] = target: β2-adrenergic receptor (β2AR), full-length, integrated into nanolipoprotein particles (β2AR-NLPs) (human) (UniProt P07550); test: pull-down; single-molecule pull-down (SiMPull): purified β2AR-NLPs immobilized on a chip via biotinylated anti-flag antibody and NeutrAvidin; Gs-mCherry HEK cell lysate diluted 1:10 in T50 buffer (50 mM NaCl, 10 mM Tris-HCl, pH 7.8) with 10 μM isoproterenol (agonist), 10 min at RT; fluorescent spots counted by TIRF microscopy; only the target purified
substance,measurement,setting,value
mCherry-labeled Gs protein (from UniProt P63095 1-394),binding,[1],no binding
same,binding,[2],binds
